Test results as given in patent US20160159919A1.
Changes are numbered by the printed parent chain. Results are given in words; binding and its absence hold for the method and conditions named. Some entries that bind do so weakly or less than the wild type.

Protein sequences, listed by entry. Tags and fused reporters are not part of them. Lines headed by an entry give the natural chain unless they say otherwise; changes in a name come on top.
UniProt O14944: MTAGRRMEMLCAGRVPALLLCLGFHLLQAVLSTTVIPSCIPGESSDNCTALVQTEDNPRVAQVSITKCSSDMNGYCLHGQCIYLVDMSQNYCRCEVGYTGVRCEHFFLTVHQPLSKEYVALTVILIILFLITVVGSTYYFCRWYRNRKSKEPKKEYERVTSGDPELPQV

B1: H150-G1d/L21-k (antibody, human IgG1, kappa, V domains shown)
VH: QDQLVQSGAEVKKPGASVKVSCKASGFNIKDTYIQWVRQAPGQGLEWMGRIDPLRRNTKYREKFEGRVTITADTSTNTAYMELSSLRSEDTAVYYCVRSGRSFDFWGQGTLVTVSS
VL: DIQMTQSPSSLSASVGDRVTITCQASQDIHKYIAWYQQKPGQAPRLLIQYTSTLQPGVPSRFSGSGSGTDYTFTISSLQPEDIATYYCLQYDNLRTFGGGTKVEIER
B2: H212-G1d/L48-k (antibody, human IgG1, kappa, V domains shown)
VH: B1 VH with R56K, N57Q, S102E
VL: B1 VL with Q24K, L94R, E106K
B3: H183-G1d/L48-k (antibody, human IgG1, kappa, V domains shown)
VH: B1 VH with N57Q, S102E
VL: B1 VL with Q24K, L94R, E106K
B4: H205-G1d/LB-k (antibody, human IgG1, kappa, V domains shown)
VH: B1 VH with N57Q, S102E, F105Y
VL: B1 VL with Q24K, E106K
B5: H183-G1d/L21-k (antibody, human IgG1, kappa, V domains shown)
VH: B1 VH with N57Q, S102E
VL: B1 VL
B6: H193-G1d/LB-k (antibody, human IgG1, kappa, V domains shown)
VH: B1 VH with R56E, N57Q
VL: B1 VL with Q24K, E106K
B7: H154-G1d/LB-k (antibody, human IgG1, kappa, V domains shown)
VH: B1 VH with S102E
VL: B1 VL with Q24K, E106K
B8: H207-G1d/LB-k (antibody, human IgG1, kappa, V domains shown)
VH: B1 VH with N57Q, T74E, S102E
VL: B1 VL with Q24K, E106K
B9: H210-G1d/LB-k (antibody, human IgG1, kappa, V domains shown)
VH: B1 VH with N57Q, R61K, S102E
VL: B1 VL with Q24K, E106K
B10: H213-G1d/LB-k (antibody, human IgG1, kappa, V domains shown)
VH: B1 VH with R56H, N57Q, S102E
VL: B1 VL with Q24K, E106K
B11: H154-G1d/L48-k (antibody, human IgG1, kappa, V domains shown)
VH: B1 VH with S102E
VL: B1 VL with Q24K, L94R, E106K
B12: H211-G1d/L48-k (antibody, human IgG1, kappa, V domains shown)
VH: B1 VH with N57Q, R61H, S102E
VL: B1 VL with Q24K, L94R, E106K
B13: H197-G1d/LB-k (antibody, human IgG1, kappa, V domains shown)
VH: B1 VH with N57Q, R61H
VL: B1 VL with Q24K, E106K
B14: H211-G1d/LB-k (antibody, human IgG1, kappa, V domains shown)
VH: B1 VH with N57Q, R61H, S102E
VL: B1 VL with Q24K, E106K
B15: H168-G1d/LB-k (antibody, human IgG1, kappa, V domains shown)
VH: B1 VH with N57S, R101T
VL: B1 VL with Q24K, E106K
B16: H183-G1d/LB-k (antibody, human IgG1, kappa, V domains shown)
VH: B1 VH with N57Q, S102E
VL: B1 VL with Q24K, E106K
B17: H166-G1d/LB-k (antibody, human IgG1, kappa, V domains shown)
VH: B1 VH with N57Q, R101T
VL: B1 VL with Q24K, E106K
B18: H197-G1d/L48-k (antibody, human IgG1, kappa, V domains shown)
VH: B1 VH with N57Q, R61H
VL: B1 VL with Q24K, L94R, E106K
B19: H213-G1d/L48-k (antibody, human IgG1, kappa, V domains shown)
VH: B1 VH with R56H, N57Q, S102E
VL: B1 VL with Q24K, L94R, E106K
B20: H212-G1d/LB-k (antibody, human IgG1, kappa, V domains shown)
VH: B1 VH with R56K, N57Q, S102E
VL: B1 VL with Q24K, E106K
B21: H204-G1d/LB-k (antibody, human IgG1, kappa, V domains shown)
VH: B1 VH with N57Q, S88A, S102E
VL: B1 VL with Q24K, E106K
B22: H207-G1d/L48-k (antibody, human IgG1, kappa, V domains shown)
VH: B1 VH with N57Q, T74E, S102E
VL: B1 VL with Q24K, L94R, E106K
B23: H224-G1d/L53-k (antibody, human IgG1, kappa, V domains shown)
VH: B1 VH with K13N, N57Q, S88A, S102E, F105Y
VL: B1 VL with Q24R, E106K
B24: H213-G1d/L53-k (antibody, human IgG1, kappa, V domains shown)
VH: B1 VH with R56H, N57Q, S102E
VL: B1 VL with Q24R, E106K
B25: H240-G1d/L53-k (antibody, human IgG1, kappa, V domains shown)
VH: B1 VH with R56K, N57Q, S102E, F105Y
VL: B1 VL with Q24R, E106K
B26: H240-G1d/L73-k (antibody, human IgG1, kappa, V domains shown)
VH: B1 VH with R56K, N57Q, S102E, F105Y
VL: B1 VL with Q24R, D92E, N93Q, E106K
B27: H206-G1d/L53-k (antibody, human IgG1, kappa, V domains shown)
VH: B1 VH with K13N, N57Q, S102E
VL: B1 VL with Q24R, E106K
B28: H206-G1d/L73-k (antibody, human IgG1, kappa, V domains shown)
VH: B1 VH with K13N, N57Q, S102E
VL: B1 VL with Q24R, D92E, N93Q, E106K

biological target: cynomolgus EREG (Biacore analyte) (cynomolgus monkey); experiment: SPR (Biacore T100, Reference Example 24): antibody captured by Protein A, cynomolgus and human EREG as analytes; bar = KD for monkey Epiregulin / KD for human Epiregulin

binding, binds:
B1
B2
B3
B4
B5
B6
B7
B8
B9
B10
B11
B12
B13
B14
B15
B16
B17
B18
B19
B20
B21
B22
B23

biological target: Human EREG (Biacore analyte) (human) (UniProt O14944); experiment: SPR (Biacore), FIG. 3

binding, binds:
B1
B2
B3
B4
B24
B5
B6
B25
B7
B8
B9
B10
B11
B26
B12
B13
B14
B27
B15
B16
B17
B18
B19
B20
B28
B21
B22
B23

biological target: cynomolgus EREG (Biacore analyte) (cynomolgus monkey); experiment: SPR (Biacore), FIG. 4

binding, binds:
B1
B2
B3
B4
B5
B6
B25
B7
B8
B9
B10
B11
B26
B12
B13
B14
B27
B15
B16
B17
B18
B19
B20
B28
B21
B22
B23

biological target: Human EREG (Biacore analyte) (human) (UniProt O14944); experiment: SPR (Biacore T100, Reference Example 24): antibody captured by Protein A, human EREG as analyte; bar = KD of the antibody / KD of chimeric EP27

binding, binds:
B1
B2
B3
B4
B5
B6
B7
B8
B9
B10
B11
B12
B13
B14
B15
B16
B17
B18
B19
B20
B21
B22
B23
